Like-named read-outs stand apart in the source and are kept apart here. These are yes or no findings as the source states them, for the method shown. Binding seen in cells or lysates may run through a third protein. A yes stands for co-enrichment or nearness to the bait. Other partners may have been found.
Tests used:
Experiment in all cases: affinity purification with mass spectrometry
[1] = biological target: PfUPF2-HA (P. falciparum) (UniProt Q8I2Q1)
[2] = biological target: PfUPF1-HA (P. falciparum)
[3] = biological target: PfUPF2-HA (P. falciparum) (UniProt Q8I2Q1); remark: listed apart in the source

Which binding [1] does the source give for “DBP1 (PF3D7_0810600) (from UniProt Q8IAU1)” here?
Its binding is “binds”.

For “PfGBP2 (G-strand binding protein 2; PF3D7_1006800) (from UniProt Q8IJX3)”, which binding [1] is on record?
Its binding is “binds”.

How did the binding [1] turn out when PfUPF1 (from UniProt A0A143ZY29) was run?
The binding was “binds”.

B1: PfALBA4 (PF3D7_1347500) (protein, UniProt A0A5K1K8Y8 1-372)
chain: MENDKKHNQKQNNVDENEFPNSKVLLVSVKRTRRFLERTARELLAGGTRYIILSGLGDALPLCVQLQSSLQSKNAANVVKIETSYSYFNSNYSYTPGLKIYMEKHPEFKGSRISPGYVSFHEKTDSFTPIYDENPNEYICSLNAGDNNLYVGGEGINGAFSELLSSHNQEVDKYESLFKELLTKAVNENGEKPDEEVKSVLYDNVDKKYPDVKLALCRIRNSLKKGSDHSTGSVFIVTFKKNFPHKKEKNMGMVYVVGPKGKNYNSVEEFLDEVQETAENLMTTLCDYNGLVKREEIKHVRMNTCRICLFSGSIFKHPNASKLDVAKAILNGLAVGYRHGPSPRLNFAYDENVFKDAWVETTGLQVFNHNEQ
Which binding [2] does the source give for B1 here?
The binding was “binds”.

And the binding [3]?
The binding was “binds”.
